In the assay the target is T1, FAM46C^WT-GFP (human) (UniProt Q5VWP2).
T1 sequence: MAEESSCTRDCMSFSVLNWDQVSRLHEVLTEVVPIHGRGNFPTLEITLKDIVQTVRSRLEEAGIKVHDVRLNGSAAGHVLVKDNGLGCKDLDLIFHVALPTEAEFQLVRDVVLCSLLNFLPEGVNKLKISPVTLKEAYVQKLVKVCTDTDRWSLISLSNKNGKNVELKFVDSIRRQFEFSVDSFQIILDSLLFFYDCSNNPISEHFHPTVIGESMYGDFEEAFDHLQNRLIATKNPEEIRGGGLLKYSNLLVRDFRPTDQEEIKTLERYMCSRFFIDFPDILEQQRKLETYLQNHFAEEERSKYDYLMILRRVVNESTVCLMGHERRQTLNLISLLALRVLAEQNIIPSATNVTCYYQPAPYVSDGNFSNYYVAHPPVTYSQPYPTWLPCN
Briefly: affinity purification with mass spectrometry; FAM46C^WT-GFP from HEK293 cells captured on anti-GFP resin; LB buffer (20 mM Tris, 150 mM NaCl, 0.5% Triton-X100), TEV cleavage, LC-MS with label-free quantification.

Sequences of proteins named here, by UniProt entry; tags and fusion partners are left off.
UniProt P11940: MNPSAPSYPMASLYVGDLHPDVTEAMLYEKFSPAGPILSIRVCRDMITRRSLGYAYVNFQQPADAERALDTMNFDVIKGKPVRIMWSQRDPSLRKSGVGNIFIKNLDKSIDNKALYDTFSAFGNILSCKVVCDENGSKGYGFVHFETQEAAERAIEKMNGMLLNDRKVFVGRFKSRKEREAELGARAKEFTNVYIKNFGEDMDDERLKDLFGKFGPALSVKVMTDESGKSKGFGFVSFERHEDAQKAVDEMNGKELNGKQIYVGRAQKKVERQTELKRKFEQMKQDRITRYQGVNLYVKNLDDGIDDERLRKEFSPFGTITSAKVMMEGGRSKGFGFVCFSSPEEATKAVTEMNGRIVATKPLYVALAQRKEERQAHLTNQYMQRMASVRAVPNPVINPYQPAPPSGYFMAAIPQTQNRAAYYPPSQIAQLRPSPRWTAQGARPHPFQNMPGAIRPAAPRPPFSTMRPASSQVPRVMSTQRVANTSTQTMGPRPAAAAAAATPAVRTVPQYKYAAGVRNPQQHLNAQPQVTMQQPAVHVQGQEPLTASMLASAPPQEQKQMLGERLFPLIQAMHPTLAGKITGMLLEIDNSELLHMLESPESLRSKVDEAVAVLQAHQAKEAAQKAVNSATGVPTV

Results are given in words; binding and its absence hold for the method and conditions named. In cells and extracts the contact can be indirect. Here binding means that the protein was enriched with, or labelled near, the bait; the list need not be complete. No binding means not detected with the bait. Sequences can lack the tags named with a protein.

For “cytoplasmic poly(A)-binding protein PABPC1 (from UniProt P11940 1-636)”, the binding result is on record as “binds”.

B1: FAM46B (protein, UniProt Q96A09 1-425)
chain: MMPSESGAERRDRAAAQVGTAAATAVATAAPAGGGPDPEALSAFPGRHLSGLSWPQVKRLDALLSEPIPIHGRGNFPTLSVQPRQIVQVVRSTLEEQGLHVHSVRLHGSAASHVLHPESGLGYKDLDLVFRVDLRSEASFQLTKAVVLACLLDFLPAGVSRAKITPLTLKEAYVQKLVKVCTDSDRWSLISLSNKSGKNVELKFVDSVRRQFEFSIDSFQIILDSLLLFGQCSSTPMSEAFHPTVTGESLYGDFTEALEHLRHRVIATRSPEEIRGGGLLKYCHLLVRGFRPRPSTDVRALQRYMCSRFFIDFPDLVEQRRTLERYLEAHFGGADAARRYACLVTLHRVVNESTVCLMNHERRQTLDLIAALALQALAEQGPAATAALAWRPPGTDGVVPATVNYYVTPVQPLLAHAYPTWLPCN
Regarding B1, the binding entry is “no binding”.

The values above are taken from publication PMC5606997.
